The other results are listed elsewhere or left out.
What was measured:
Test in all cases: log2 fold change, soluble protein after heating vs DMSO (PISA); higher = thermal stabilisation; K562 lysate, 10 uM; active = over 0.2 and 3.5 SD of the protein, either way, in both replicates (recomputed)
ibrutinib = compound: C=CC(=O)N1CCC[C@@H](n2nc(-c3ccc(Oc4ccccc4)cc3)c3c(N)ncnc32)C1 [ibrutinib]
Procedure, shortened: (§1)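 Pellets of K562 cells were dounce-homogenised in PBS pH 7.4 with 1 mM MgCl2, and the crude extract was held at 1 mg/mL protein for a 30 min treatment with 10 μM compound. Aliquots were heated for 3 min over 48°C-58°C and pooled before NP-40 was added to 0.5% at 4°C. The supernatant from 21,000xg for 90 min was quantified by TMTpro 16plex LC-MS/MS with channel sums equalised. Values are reported from duplicates as log-two fold change in thermal stability relative to solvent controls.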

Protein sequences, listed by entry. Tags and fused reporters are not part of them. Lines headed by an entry give the natural chain unless they say otherwise; changes in a name come on top.
UniProt O75379: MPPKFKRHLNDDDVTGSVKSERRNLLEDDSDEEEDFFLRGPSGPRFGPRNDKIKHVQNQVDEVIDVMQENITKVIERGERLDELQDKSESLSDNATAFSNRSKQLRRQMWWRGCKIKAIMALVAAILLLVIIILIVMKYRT
UniProt O94763, whole entry, looked up: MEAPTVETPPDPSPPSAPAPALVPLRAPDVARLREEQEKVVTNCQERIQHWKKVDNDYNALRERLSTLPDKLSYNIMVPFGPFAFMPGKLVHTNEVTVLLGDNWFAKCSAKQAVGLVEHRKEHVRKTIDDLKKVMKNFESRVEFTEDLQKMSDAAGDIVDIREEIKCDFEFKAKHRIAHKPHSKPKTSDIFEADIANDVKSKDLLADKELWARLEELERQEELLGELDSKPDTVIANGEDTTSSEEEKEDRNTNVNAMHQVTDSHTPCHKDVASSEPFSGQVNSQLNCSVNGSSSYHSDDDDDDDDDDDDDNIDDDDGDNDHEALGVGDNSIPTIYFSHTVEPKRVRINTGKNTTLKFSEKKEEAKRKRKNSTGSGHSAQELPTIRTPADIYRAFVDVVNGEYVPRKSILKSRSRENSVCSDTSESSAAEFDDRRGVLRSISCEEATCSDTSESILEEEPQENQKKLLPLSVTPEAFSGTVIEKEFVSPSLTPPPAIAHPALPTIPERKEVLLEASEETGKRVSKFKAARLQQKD
UniProt A6NIH7: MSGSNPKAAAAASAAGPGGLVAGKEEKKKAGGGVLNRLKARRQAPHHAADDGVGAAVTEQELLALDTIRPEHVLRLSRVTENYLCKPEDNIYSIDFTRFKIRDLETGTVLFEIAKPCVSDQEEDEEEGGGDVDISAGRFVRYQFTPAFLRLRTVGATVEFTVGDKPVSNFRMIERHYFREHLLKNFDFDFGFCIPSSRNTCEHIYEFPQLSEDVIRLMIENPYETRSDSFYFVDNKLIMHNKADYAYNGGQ
UniProt P40337, whole entry, looked up: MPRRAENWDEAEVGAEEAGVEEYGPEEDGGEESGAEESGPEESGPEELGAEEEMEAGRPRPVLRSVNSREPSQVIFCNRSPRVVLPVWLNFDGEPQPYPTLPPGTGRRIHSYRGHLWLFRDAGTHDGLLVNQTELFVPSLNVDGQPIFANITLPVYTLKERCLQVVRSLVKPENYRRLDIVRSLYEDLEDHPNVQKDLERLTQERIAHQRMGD
UniProt Q16739: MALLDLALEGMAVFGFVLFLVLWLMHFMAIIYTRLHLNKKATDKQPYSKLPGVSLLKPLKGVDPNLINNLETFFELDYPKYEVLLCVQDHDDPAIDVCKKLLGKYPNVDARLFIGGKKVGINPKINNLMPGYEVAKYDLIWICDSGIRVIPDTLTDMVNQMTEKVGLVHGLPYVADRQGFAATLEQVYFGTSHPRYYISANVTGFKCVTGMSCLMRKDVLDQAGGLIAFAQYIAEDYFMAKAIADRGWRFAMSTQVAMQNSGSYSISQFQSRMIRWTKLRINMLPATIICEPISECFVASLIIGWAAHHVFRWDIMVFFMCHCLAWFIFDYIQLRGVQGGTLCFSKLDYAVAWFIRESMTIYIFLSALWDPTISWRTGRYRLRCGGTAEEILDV
UniProt Q14135: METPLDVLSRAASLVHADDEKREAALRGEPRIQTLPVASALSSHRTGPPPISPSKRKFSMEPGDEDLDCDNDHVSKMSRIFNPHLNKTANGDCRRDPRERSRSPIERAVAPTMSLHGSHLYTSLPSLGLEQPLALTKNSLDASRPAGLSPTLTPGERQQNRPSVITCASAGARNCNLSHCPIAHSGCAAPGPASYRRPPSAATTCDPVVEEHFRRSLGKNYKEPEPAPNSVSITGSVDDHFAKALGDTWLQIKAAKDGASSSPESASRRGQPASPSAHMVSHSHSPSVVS
UniProt Q8NB14: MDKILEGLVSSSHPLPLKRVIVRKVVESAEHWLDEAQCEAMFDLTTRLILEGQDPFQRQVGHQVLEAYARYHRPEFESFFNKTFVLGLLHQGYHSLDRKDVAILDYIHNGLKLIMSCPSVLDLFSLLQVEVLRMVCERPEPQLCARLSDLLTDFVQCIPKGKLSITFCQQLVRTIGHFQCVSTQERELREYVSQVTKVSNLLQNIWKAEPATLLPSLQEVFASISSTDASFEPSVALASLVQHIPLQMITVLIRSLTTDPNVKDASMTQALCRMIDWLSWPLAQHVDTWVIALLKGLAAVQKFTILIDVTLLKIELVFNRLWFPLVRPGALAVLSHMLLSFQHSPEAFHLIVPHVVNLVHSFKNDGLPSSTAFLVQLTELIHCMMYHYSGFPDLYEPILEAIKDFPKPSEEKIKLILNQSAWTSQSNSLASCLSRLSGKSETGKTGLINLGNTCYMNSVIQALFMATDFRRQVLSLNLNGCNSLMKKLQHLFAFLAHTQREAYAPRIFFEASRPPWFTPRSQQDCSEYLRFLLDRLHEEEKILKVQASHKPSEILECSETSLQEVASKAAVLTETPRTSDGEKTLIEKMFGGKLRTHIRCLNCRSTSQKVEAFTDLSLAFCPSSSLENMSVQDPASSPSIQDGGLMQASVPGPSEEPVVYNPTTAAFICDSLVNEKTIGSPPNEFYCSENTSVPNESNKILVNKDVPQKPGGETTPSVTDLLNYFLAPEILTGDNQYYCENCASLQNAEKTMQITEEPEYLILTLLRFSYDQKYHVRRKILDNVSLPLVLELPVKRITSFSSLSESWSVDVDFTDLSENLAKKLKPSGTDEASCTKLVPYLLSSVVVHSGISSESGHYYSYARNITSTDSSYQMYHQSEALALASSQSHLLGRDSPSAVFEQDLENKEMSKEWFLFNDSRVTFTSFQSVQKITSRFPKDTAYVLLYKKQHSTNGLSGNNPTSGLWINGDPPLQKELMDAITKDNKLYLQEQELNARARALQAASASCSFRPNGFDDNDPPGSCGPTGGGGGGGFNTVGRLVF
UniProt P62068, whole entry, looked up: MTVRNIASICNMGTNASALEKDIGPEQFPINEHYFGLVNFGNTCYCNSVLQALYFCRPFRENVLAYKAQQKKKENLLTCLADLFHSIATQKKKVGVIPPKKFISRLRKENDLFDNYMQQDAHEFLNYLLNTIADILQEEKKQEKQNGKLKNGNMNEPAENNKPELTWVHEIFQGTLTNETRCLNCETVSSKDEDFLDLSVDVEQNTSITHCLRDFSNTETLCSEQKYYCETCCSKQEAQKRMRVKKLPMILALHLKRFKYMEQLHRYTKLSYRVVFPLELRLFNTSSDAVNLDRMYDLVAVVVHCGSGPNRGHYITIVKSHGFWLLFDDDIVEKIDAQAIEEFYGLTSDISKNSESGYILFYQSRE
UniProt Q9BRU9: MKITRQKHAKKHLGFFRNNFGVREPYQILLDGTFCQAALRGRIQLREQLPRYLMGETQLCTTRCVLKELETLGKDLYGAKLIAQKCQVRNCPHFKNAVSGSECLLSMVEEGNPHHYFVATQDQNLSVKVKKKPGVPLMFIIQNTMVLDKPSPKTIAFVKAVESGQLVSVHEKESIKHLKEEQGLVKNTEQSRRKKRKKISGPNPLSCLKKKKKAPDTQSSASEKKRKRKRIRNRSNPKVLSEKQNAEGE
UniProt Q9NYU2: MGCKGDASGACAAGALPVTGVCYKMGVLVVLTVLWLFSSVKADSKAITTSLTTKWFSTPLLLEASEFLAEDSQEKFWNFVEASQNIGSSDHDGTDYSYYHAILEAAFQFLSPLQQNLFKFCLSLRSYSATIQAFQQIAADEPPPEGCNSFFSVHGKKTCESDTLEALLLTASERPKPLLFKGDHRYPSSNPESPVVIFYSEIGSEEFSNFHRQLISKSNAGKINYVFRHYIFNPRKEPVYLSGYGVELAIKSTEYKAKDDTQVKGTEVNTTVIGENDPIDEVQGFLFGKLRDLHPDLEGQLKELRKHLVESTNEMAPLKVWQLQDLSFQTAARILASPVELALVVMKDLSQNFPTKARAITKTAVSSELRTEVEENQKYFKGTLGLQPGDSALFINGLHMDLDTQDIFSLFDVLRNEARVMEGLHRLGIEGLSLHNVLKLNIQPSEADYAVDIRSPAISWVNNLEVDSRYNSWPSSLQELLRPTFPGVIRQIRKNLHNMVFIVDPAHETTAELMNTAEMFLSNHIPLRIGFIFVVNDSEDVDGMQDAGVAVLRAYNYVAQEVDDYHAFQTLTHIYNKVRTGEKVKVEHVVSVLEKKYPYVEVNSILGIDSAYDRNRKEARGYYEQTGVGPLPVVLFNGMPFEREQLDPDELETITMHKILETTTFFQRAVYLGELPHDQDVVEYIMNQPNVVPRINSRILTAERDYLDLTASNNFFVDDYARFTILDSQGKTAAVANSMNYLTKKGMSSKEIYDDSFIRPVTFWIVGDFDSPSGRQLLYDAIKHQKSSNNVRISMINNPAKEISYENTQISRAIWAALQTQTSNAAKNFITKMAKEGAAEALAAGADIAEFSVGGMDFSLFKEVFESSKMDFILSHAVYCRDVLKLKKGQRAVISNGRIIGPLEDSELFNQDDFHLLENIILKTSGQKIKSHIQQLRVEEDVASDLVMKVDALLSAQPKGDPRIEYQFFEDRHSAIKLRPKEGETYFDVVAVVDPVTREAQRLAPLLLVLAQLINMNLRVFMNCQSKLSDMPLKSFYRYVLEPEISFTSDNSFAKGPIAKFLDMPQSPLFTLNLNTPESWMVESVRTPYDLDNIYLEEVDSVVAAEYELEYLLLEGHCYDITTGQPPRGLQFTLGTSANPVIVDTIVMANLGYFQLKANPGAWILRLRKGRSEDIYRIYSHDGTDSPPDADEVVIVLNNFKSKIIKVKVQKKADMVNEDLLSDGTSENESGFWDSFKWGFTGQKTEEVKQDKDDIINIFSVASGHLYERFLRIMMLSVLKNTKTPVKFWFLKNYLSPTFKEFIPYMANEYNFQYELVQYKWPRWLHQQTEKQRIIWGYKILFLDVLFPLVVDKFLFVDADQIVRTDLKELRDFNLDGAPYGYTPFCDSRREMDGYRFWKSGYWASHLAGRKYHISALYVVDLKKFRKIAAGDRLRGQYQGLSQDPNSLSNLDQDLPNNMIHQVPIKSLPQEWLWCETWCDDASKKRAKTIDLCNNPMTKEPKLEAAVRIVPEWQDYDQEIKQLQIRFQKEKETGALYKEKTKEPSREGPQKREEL
UniProt Q9Y3A2: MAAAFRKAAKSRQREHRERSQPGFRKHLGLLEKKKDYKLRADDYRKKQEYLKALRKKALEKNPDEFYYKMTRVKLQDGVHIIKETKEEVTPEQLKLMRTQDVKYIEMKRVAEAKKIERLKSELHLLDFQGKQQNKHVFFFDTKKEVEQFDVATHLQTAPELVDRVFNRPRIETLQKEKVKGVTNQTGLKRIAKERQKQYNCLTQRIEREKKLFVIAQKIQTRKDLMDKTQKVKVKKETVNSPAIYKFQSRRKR
UniProt P13051, whole entry, looked up: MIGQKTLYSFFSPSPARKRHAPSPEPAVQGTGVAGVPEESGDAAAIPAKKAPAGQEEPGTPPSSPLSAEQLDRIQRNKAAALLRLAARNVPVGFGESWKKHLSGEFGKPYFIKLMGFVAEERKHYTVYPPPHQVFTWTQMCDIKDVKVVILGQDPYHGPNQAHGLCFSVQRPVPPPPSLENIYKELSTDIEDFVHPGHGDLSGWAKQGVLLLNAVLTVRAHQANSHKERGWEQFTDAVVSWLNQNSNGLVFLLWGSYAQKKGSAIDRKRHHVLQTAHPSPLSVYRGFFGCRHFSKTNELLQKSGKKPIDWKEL
UniProt Q6PHR2: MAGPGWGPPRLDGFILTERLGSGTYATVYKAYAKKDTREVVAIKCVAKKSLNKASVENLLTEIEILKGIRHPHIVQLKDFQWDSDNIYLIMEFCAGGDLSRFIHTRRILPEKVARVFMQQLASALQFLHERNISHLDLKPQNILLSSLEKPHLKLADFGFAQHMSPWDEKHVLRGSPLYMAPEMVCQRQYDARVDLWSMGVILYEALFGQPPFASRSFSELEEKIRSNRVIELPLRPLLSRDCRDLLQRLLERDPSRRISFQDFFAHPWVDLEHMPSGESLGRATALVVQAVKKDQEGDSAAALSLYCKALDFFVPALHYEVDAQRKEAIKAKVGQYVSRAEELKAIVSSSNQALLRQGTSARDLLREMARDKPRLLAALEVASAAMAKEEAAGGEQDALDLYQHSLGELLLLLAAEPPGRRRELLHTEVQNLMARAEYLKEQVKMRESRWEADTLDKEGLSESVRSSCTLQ
UniProt Q9ULK5: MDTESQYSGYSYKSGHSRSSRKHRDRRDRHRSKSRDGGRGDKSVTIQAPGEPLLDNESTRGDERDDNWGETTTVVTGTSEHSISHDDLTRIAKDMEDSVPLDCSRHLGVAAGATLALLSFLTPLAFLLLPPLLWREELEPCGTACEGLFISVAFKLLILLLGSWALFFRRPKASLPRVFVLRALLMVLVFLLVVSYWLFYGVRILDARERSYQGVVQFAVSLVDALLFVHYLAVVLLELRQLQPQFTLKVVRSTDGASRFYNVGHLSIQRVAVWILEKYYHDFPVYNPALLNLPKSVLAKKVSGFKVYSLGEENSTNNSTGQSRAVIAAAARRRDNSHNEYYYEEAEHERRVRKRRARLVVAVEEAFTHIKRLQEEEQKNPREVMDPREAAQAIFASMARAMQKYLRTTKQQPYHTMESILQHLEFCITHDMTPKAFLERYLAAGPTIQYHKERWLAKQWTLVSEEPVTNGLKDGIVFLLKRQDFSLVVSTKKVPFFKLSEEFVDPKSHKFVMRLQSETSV

[1] = compound: CC(=O)c1cnc2ccc(-c3cc(Cl)c(O)c(Cl)c3)nc2c1N[C@H]1CC[C@H](CN(C)C)CC1
Procedure, shortened: as §1

ralimetinib = compound: CC(C)(C)Cn1c(N)nc2ccc(-c3[nH]c(C(C)(C)C)nc3-c3ccc(F)cc3)nc21 [ralimetinib]
Procedure, shortened: as §1

[2] = compound: CC(C)(O)CC(=O)NCCn1ccc2ncnc(Nc3ccc(Oc4cccc(C(F)(F)F)c4)c(Cl)c3)c21
Procedure, shortened: as §1

[3] = compound: CC(C)C1=C2N=C(C=C(N2N=C1)NCC3=CC=CC=C3)NCCCCCCN
Procedure, shortened: as §1

[4] = compound: CC1=C(C(CC(=O)N1)C2=CC=C(C=C2)C(F)(F)F)C(=O)NC3=C(C=C4C(=C3)C=NN4)F
Procedure, shortened: as §1

[5] = compound: CC1=C(C2=C(C=C1)C(=O)C3=CC=CC=C3N2CCCN)C
Procedure, shortened: as §1

[6] = compound: CC1=C(C=C(C=C1)NC(=O)C2=CC(=CC=C2)C(C)(C)C#N)NC3=CC4=C(C=C3)N=CN(C4=O)C
Procedure, shortened: as §1

[7] = compound: CC1=C(C=C(C=C1)NC(=O)C2=CC(=CC=C2)N(C)C)NC(=O)C3=CC=C(C=C3)O
Procedure, shortened: as §1

[8] = compound: CC1=CC=C(C=C1)SC2=C3C=C(SC3=CN=C2)C(=O)N
Procedure, shortened: as §1

Measured: log2 fold change

VAMP4 (UniProt O75379)
inactive: ibrutinib -0.053 | [1] 0.011 | ralimetinib 0.047 | [2] 0.016 | [3] -0.011 | [4] 0.166 | [5] -0.005 | [6] 0.063 | [7] -0.042 | [8] 0.038

UQCC1 (UniProt Q9NVA1)
inactive: ibrutinib -0.001 | [1] 0.02 | ralimetinib 0.018 | [2] -0.023 | [3] -0.001 | [4] 0.014 | [5] 0.014 | [6] -0.018 | [7] -0.014 | [8] -0.002

UGGT2 (UniProt Q9NYU1)
inactive: ibrutinib 0.068 | [1] -0.04 | ralimetinib 0.04 | [2] 0.004 | [3] -0.031 | [4] 0.079 | [5] -0.027 | [6] -0.01 | [7] 0.017 | [8] 0.015

USP28 isoform 2 (UniProt Q96RU2)
inactive: ibrutinib 0.026 | [1] -0.02 | ralimetinib 0.043 | [2] 0.041 | [3] -0.004 | [4] -0.036 | [5] 0.012 | [6] 0.004 | [7] 0.02 | [8] 0.027

URI1 (UniProt O94763)
inactive: ibrutinib 0.057 | [1] 0.012 | ralimetinib 0.022 | [2] 0.019 | [3] -0.045 | [4] 0.002 | [5] -0.001 | [6] 0 | [7] -0.028 | [8] -0.003

VIL1 (UniProt P09327)
inactive: ibrutinib -0.142 | [1] -0.052 | ralimetinib 0.13 | [2] 0.017 | [3] 0.002 | [5] -0.021 | [6] 0.002 | [7] -0.162 | [8] 0.035

ULBP2 (UniProt Q9BZM5)
inactive: ibrutinib -0.011 | [1] 0 | ralimetinib -0.017 | [2] -0.034 | [3] -0.048 | [5] 0.2 | [6] 0.04 | [7] 0.06 | [8] -0.049

UNC119B (UniProt A6NIH7)
inactive: ibrutinib -0.034 | [1] -0.022 | ralimetinib -0.098 | [2] 0.011 | [3] 0.035 | [4] 0.019 | [5] -0.086 | [6] 0.059 | [7] -0.034 | [8] -0.04

UQCC3 (UniProt Q6UW78)
inactive: ibrutinib 0.2 | [1] -0.202 | ralimetinib 0.147 | [2] -0.11 | [3] -0.015 | [5] 0.099 | [7] -0.212 | [8] 0.085

VHL (UniProt P40337)
inactive: ibrutinib 0.033 | ralimetinib 0.09 | [2] -0.027 | [3] 0.06 | [4] -0.045 | [5] -0.109 | [6] -0.013 | [7] 0.024

UGCG (UniProt Q16739)
inactive: ibrutinib -0.136 | ralimetinib 0.061 | [2] -0.023 | [3] 0.079 | [4] 0.041 | [5] -0.211 | [6] -0.026 | [7] -0.001

VGLL4 isoform 4 (UniProt Q14135)
inactive: ibrutinib 0.366 | ralimetinib 0.048 | [2] -0.037 | [3] 0.024 | [4] 0.018 | [5] -0.033 | [6] 0.035 | [7] 0.072

USP7 (UniProt H3BND8)
inactive: ibrutinib 0.199 | [1] -0.12 | [4] -0.023 | [8] 0.076

UFM1 (UniProt P61960)
inactive: ibrutinib 0.059 | [1] 0.072 | ralimetinib 0.008 | [2] -0.014 | [3] -0.003 | [4] -0.04 | [5] -0.007 | [6] -0.097 | [7] -0.038 | [8] 0.109

UPF3A (UniProt Q9H1J1)
inactive: ibrutinib 0.006 | [1] 0.024 | ralimetinib 0.115 | [2] 0.005 | [3] -0.114 | [6] 0.014 | [7] -0.025 | [8] 0.019

USP5 (UniProt F5H571)
inactive: ibrutinib 0.072 | [1] 0.036 | [4] 0.118 | [8] 0.005

URI1 isoform 4 (UniProt O94763)
inactive: ibrutinib -0.069 | [1] -0.001 | ralimetinib 0.054 | [2] -0.078 | [3] 0.05 | [4] 0.037 | [5] 0.019 | [6] -0.034 | [7] -0.018 | [8] 0.085

UROD (UniProt H0Y5R6)
inactive: ibrutinib 0.05 | [1] 0.101 | ralimetinib 0.116 | [2] -0.116 | [7] -0.345 | [8] -0.077

USP38 (UniProt Q8NB14)
inactive: ibrutinib -0.132 | [1] -0.073 | ralimetinib -0.047 | [2] -0.095 | [4] 0.042 | [5] 0.018 | [6] 0.006 | [7] 0.061 | [8] -0.093

USP46 (UniProt P62068)
inactive: ibrutinib -0.129 | [1] 0.027 | [6] 0.009 | [8] 0.041

VEZT (UniProt F8W8C2)
inactive: ibrutinib 0.094 | [1] 0.05 | ralimetinib 0.158 | [2] -0.079 | [3] 0.007 | [6] -0.512 | [7] 0.116 | [8] -0.081

UTRN isoform 2 (UniProt P46939)
inactive: ibrutinib -0.03 | [3] -0.012

UTP18 (UniProt Q9Y5J1)
inactive: ibrutinib 0.125 | [1] -0.031 | ralimetinib 0.002 | [2] -0.017 | [3] 0.033 | [4] 0.057 | [5] -0.085 | [6] -0.017 | [7] 0.028 | [8] 0.023

UTP23 (UniProt Q9BRU9)
inactive: ibrutinib -0.056 | [1] -0.022 | ralimetinib 0.049 | [2] -0.036 | [3] 0.119 | [5] -0.008 | [6] 0.025 | [7] -0.057 | [8] -0.02

USP42 (UniProt Q9H9J4)
inactive: ibrutinib 0.111 | [1] 0.077 | [4] 0.011 | [6] 0.045 | [8] 0.02

Reprinted from above (2 entries):
VGLL4 isoform 4 (UniProt Q14135)
inactive: ibrutinib 0.366 | ralimetinib 0.048 | [2] -0.037 | [3] 0.024 | [4] 0.018 | [5] -0.033 | [6] 0.035 | [7] 0.072

USP7 (UniProt H3BND8)
inactive: ibrutinib 0.199 | [1] -0.12 | [4] -0.023 | [8] 0.076

The list continues:

UGGT1 (UniProt Q9NYU2)
inactive: ibrutinib -0.006 | [1] -0.013 | ralimetinib 0.015 | [2] 0.003 | [3] 0 | [4] 0.024 | [5] -0.009 | [6] -0.002 | [7] -0.001 | [8] 0

URGCP (UniProt Q8TCY9)
active: [2] -0.515
inactive: ibrutinib 0.081 | ralimetinib -0.07 | [4] -0.05 | [5] 0.008 | [7] -0.042

USP20 (UniProt Q9Y2K6)
inactive: ibrutinib 0.144 | ralimetinib -0.014 | [2] -0.167 | [3] 0.027 | [5] 0.01 | [6] -0.114 | [7] 0.078

UTP11 (UniProt Q9Y3A2)
inactive: ibrutinib -0.061 | [1] 0.018 | [4] -0.055 | [5] 0.004 | [6] -0.081 | [8] 0.033

UNG (UniProt P13051)
inactive: ibrutinib 0.061 | ralimetinib 0.145 | [2] 0.014 | [3] -0.019 | [5] 0.02 | [7] 0.033

ULK3 isoform 4 (UniProt Q6PHR2)
inactive: ibrutinib -0.08 | [1] -0.024 | [3] -0.091 | [5] -0.06 | [6] 0.094 | [8] 0.08

VANGL2 (UniProt Q9ULK5)
inactive: ibrutinib 0 | [1] -0.183 | ralimetinib -0.06 | [2] -0.124 | [3] -0.005 | [5] 0.184 | [6] 0.236 | [7] 0.121 | [8] -0.223

URM1 isoform 2 (UniProt Q9BTM9)
inactive: ibrutinib -0.007 | [1] -0.083 | ralimetinib 0.059 | [2] 0.048 | [3] -0.03 | [4] -0.033 | [5] 0.014 | [7] 0.068 | [8] -0.032

UEVLD (UniProt Q8IX04)
inactive: ibrutinib -0.016 | [1] 0.007 | ralimetinib 0 | [2] -0.094 | [3] 0.026 | [4] -0.059 | [5] 0.039 | [6] 0.023 | [7] 0.01 | [8] -0.016
